{"source": "PubChem BioAssay AID1508597 (Cure First, 2020)", "screen": "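Survival screen with siRNA in ovarian cancer cells derived from patients, with or without rucaparib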 (primary screen)", "system": "human ovarian carcinoma lines grown from tumours: OCI-P5x (papillary serous) and OCI-C5x (clear cell)", "knock-down reagent": "siRNA pool against human genes, 1.25 pmol siRNA per well", "time to read-out": "72 h or 96 h, depending on the cell culture", "conditions": "rucaparib 20 µM (about IC30) or vehicle, present until read-out", "detection": "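Luminescent ATP-based viability assay read 72 or 96 h after transfection, depending on culture, given as normalised percent viability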", "scale": "viability, normalised: higher = more viable cells remaining", "rule for the call": "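a well counts as a hit if its normalised viability is under 80 percent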", "calls": "active = viability under 80%; inactive = viability 80% or more", "note": "The deposit covers about 2,100 reagents; below is a part drawn at random. 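Calls flag viability under 80% in either arm, not effects specific to rucaparib; the reference for percent is not stated.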 Entries without a mark were called inactive. Not stated in the record: the 100% reference."}
{"target":"SRC (SRC proto-oncogene, non-receptor tyrosine kinase)","rucaparib or vehicle":"Rucaparib","cell line":"OCI-C5x (clear cell)","technical replicate":"1","viability, normalised (%)":"44.8 (active)"}
{"target":"SRC (SRC proto-oncogene, non-receptor tyrosine kinase)","rucaparib or vehicle":"Rucaparib","cell line":"OCI-C5x (clear cell)","technical replicate":"2","viability, normalised (%)":"57 (active)"}
{"target":"SRC (SRC proto-oncogene, non-receptor tyrosine kinase)","rucaparib or vehicle":"Rucaparib","cell line":"OCI-C5x (clear cell)","technical replicate":"3","viability, normalised (%)":"59 (active)"}
{"target":"SRC (SRC proto-oncogene, non-receptor tyrosine kinase)","rucaparib or vehicle":"Rucaparib","cell line":"OCI-P5x (serous)","technical replicate":"1","viability, normalised (%)":"79.7 (active)"}
{"target":"SRC (SRC proto-oncogene, non-receptor tyrosine kinase)","rucaparib or vehicle":"Rucaparib","cell line":"OCI-P5x (serous)","technical replicate":"2","viability, normalised (%)":95.1}
{"target":"SRC (SRC proto-oncogene, non-receptor tyrosine kinase)","rucaparib or vehicle":"Rucaparib","cell line":"OCI-P5x (serous)","technical replicate":"3","viability, normalised (%)":82.7}
{"target":"SRC (SRC proto-oncogene, non-receptor tyrosine kinase)","rucaparib or vehicle":"Vehicle","cell line":"OCI-C5x (clear cell)","technical replicate":"1","viability, normalised (%)":80.2}
{"target":"SRC (SRC proto-oncogene, non-receptor tyrosine kinase)","rucaparib or vehicle":"Vehicle","cell line":"OCI-C5x (clear cell)","technical replicate":"2","viability, normalised (%)":"71.3 (active)"}
{"target":"SRC (SRC proto-oncogene, non-receptor tyrosine kinase)","rucaparib or vehicle":"Vehicle","cell line":"OCI-C5x (clear cell)","technical replicate":"3","viability, normalised (%)":"57 (active)"}
{"target":"SRC (SRC proto-oncogene, non-receptor tyrosine kinase)","rucaparib or vehicle":"Vehicle","cell line":"OCI-P5x (serous)","technical replicate":"1","viability, normalised (%)":98.9}
{"target":"SRC (SRC proto-oncogene, non-receptor tyrosine kinase)","rucaparib or vehicle":"Vehicle","cell line":"OCI-P5x (serous)","technical replicate":"2","viability, normalised (%)":85.4}
{"target":"SRC (SRC proto-oncogene, non-receptor tyrosine kinase)","rucaparib or vehicle":"Vehicle","cell line":"OCI-P5x (serous)","technical replicate":"3","viability, normalised (%)":99.1}
{"target":"RAC1 (Rac family small GTPase 1)","rucaparib or vehicle":"Rucaparib","cell line":"OCI-C5x (clear cell)","technical replicate":"1","viability, normalised (%)":"33 (active)"}
{"target":"RAC1 (Rac family small GTPase 1)","rucaparib or vehicle":"Rucaparib","cell line":"OCI-C5x (clear cell)","technical replicate":"2","viability, normalised (%)":"30.8 (active)"}
{"target":"RAC1 (Rac family small GTPase 1)","rucaparib or vehicle":"Rucaparib","cell line":"OCI-C5x (clear cell)","technical replicate":"3","viability, normalised (%)":"27.7 (active)"}
{"target":"RAC1 (Rac family small GTPase 1)","rucaparib or vehicle":"Rucaparib","cell line":"OCI-P5x (serous)","technical replicate":"1","viability, normalised (%)":"47.5 (active)"}
{"target":"RAC1 (Rac family small GTPase 1)","rucaparib or vehicle":"Rucaparib","cell line":"OCI-P5x (serous)","technical replicate":"2","viability, normalised (%)":"52.6 (active)"}
{"target":"RAC1 (Rac family small GTPase 1)","rucaparib or vehicle":"Rucaparib","cell line":"OCI-P5x (serous)","technical replicate":"3","viability, normalised (%)":"43.7 (active)"}
{"target":"RAC1 (Rac family small GTPase 1)","rucaparib or vehicle":"Vehicle","cell line":"OCI-C5x (clear cell)","technical replicate":"1","viability, normalised (%)":"36.8 (active)"}
{"target":"RAC1 (Rac family small GTPase 1)","rucaparib or vehicle":"Vehicle","cell line":"OCI-C5x (clear cell)","technical replicate":"2","viability, normalised (%)":"28.1 (active)"}
{"target":"RAC1 (Rac family small GTPase 1)","rucaparib or vehicle":"Vehicle","cell line":"OCI-C5x (clear cell)","technical replicate":"3","viability, normalised (%)":"27.3 (active)"}
{"target":"RAC1 (Rac family small GTPase 1)","rucaparib or vehicle":"Vehicle","cell line":"OCI-P5x (serous)","technical replicate":"1","viability, normalised (%)":"45.6 (active)"}
{"target":"RAC1 (Rac family small GTPase 1)","rucaparib or vehicle":"Vehicle","cell line":"OCI-P5x (serous)","technical replicate":"2","viability, normalised (%)":"58.8 (active)"}
{"target":"RAC1 (Rac family small GTPase 1)","rucaparib or vehicle":"Vehicle","cell line":"OCI-P5x (serous)","technical replicate":"3","viability, normalised (%)":"41.5 (active)"}

Already shown: 5 of the entries above.
{"target":"SRC (SRC proto-oncogene, non-receptor tyrosine kinase)","rucaparib or vehicle":"Vehicle","cell line":"OCI-C5x (clear cell)","technical replicate":"3","viability, normalised (%)":"57 (active)"}
{"target":"SRC (SRC proto-oncogene, non-receptor tyrosine kinase)","rucaparib or vehicle":"Vehicle","cell line":"OCI-P5x (serous)","technical replicate":"1","viability, normalised (%)":98.9}
{"target":"SRC (SRC proto-oncogene, non-receptor tyrosine kinase)","rucaparib or vehicle":"Vehicle","cell line":"OCI-P5x (serous)","technical replicate":"2","viability, normalised (%)":85.4}
{"target":"SRC (SRC proto-oncogene, non-receptor tyrosine kinase)","rucaparib or vehicle":"Vehicle","cell line":"OCI-P5x (serous)","technical replicate":"3","viability, normalised (%)":99.1}
{"target":"RAC1 (Rac family small GTPase 1)","rucaparib or vehicle":"Rucaparib","cell line":"OCI-C5x (clear cell)","technical replicate":"1","viability, normalised (%)":"33 (active)"}

The list goes on:
{"target":"EPHA10 (EPH receptor A10)","rucaparib or vehicle":"Rucaparib","cell line":"OCI-C5x (clear cell)","technical replicate":"1","viability, normalised (%)":"60.4 (active)"}
{"target":"EPHA10 (EPH receptor A10)","rucaparib or vehicle":"Rucaparib","cell line":"OCI-C5x (clear cell)","technical replicate":"2","viability, normalised (%)":"64.1 (active)"}
{"target":"EPHA10 (EPH receptor A10)","rucaparib or vehicle":"Rucaparib","cell line":"OCI-C5x (clear cell)","technical replicate":"3","viability, normalised (%)":"53.7 (active)"}
{"target":"EPHA10 (EPH receptor A10)","rucaparib or vehicle":"Rucaparib","cell line":"OCI-P5x (serous)","technical replicate":"1","viability, normalised (%)":103}
{"target":"EPHA10 (EPH receptor A10)","rucaparib or vehicle":"Rucaparib","cell line":"OCI-P5x (serous)","technical replicate":"2","viability, normalised (%)":87.4}
{"target":"EPHA10 (EPH receptor A10)","rucaparib or vehicle":"Rucaparib","cell line":"OCI-P5x (serous)","technical replicate":"3","viability, normalised (%)":"79.9 (active)"}
{"target":"EPHA10 (EPH receptor A10)","rucaparib or vehicle":"Vehicle","cell line":"OCI-C5x (clear cell)","technical replicate":"1","viability, normalised (%)":"55.1 (active)"}
{"target":"EPHA10 (EPH receptor A10)","rucaparib or vehicle":"Vehicle","cell line":"OCI-C5x (clear cell)","technical replicate":"2","viability, normalised (%)":"53.6 (active)"}
{"target":"EPHA10 (EPH receptor A10)","rucaparib or vehicle":"Vehicle","cell line":"OCI-C5x (clear cell)","technical replicate":"3","viability, normalised (%)":"40 (active)"}
{"target":"EPHA10 (EPH receptor A10)","rucaparib or vehicle":"Vehicle","cell line":"OCI-P5x (serous)","technical replicate":"1","viability, normalised (%)":88.7}
{"target":"EPHA10 (EPH receptor A10)","rucaparib or vehicle":"Vehicle","cell line":"OCI-P5x (serous)","technical replicate":"2","viability, normalised (%)":"75.1 (active)"}
{"target":"EPHA10 (EPH receptor A10)","rucaparib or vehicle":"Vehicle","cell line":"OCI-P5x (serous)","technical replicate":"3","viability, normalised (%)":95.4}
